Assay results as given in article PMC7586746, “A putative nuclear copper chaperone promotes plant immunity in Arabidopsis” (Journal of Experimental Botany, 2020).
Results are given in words; binding and its absence hold for the method and conditions named. Binding can be weak; no strength is given. For part of these data: Tags and fused reporters may be left off the sequences shown. For part of these data: Binding seen in cells or lysates may run through a third protein. Values belong to the substance of their own block, whether it stands above or below them.

The chains behind the UniProt entries cited, without tags or fusion partners. Where a name states a change or a piece, a line headed by the entry shows the natural chain unless it says otherwise.
UniProt A0A7G7X469: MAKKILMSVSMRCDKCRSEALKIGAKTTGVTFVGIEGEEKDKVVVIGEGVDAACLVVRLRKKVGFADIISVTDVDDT

What was measured:
[1] = molecular target: T1, TGA2 fused with the C-terminal half of YFP (UniProt P43273); test: split reporter; BiFC: Y^N and Y^C fusions (pSPYNE-35S / pSPYCE-35S) co-expressed with TBSV P19 by agroinfiltration in N. benthamiana leaves, YFP read by confocal microscopy at 2 dpi; some leaves treated with buffer or SA
T1 sequence: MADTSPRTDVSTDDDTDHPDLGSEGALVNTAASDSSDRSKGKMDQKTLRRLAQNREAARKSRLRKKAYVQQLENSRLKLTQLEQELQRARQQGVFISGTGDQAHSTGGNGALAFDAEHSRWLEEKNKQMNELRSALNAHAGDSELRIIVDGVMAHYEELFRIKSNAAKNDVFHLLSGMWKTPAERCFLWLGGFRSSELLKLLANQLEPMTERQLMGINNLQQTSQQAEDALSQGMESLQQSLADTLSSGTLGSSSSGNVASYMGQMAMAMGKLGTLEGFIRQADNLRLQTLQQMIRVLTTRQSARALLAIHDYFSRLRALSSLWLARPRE

[2] = molecular target: T2, TGA2 N-terminal domain fused with the C-terminal half of YFP (UniProt P43273); test: as above
T2 sequence: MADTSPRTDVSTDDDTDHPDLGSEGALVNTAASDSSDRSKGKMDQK

TGA2-Flag = molecular target: T3, TGA2-Flag (UniProt P43273); test: co-IP; TGA2-Flag co-expressed with GFP fusions in N. benthamiana leaves, 2 dpi; anti-Flag M2 affinity gel, 4 °C, 5 h; 0.1% Triton X-100, 10% glycerol, 25 mM Tris–HCl pH 7.5, 200 mM NaCl, 1 mM EDTA, 10 mM DTT; blots with anti-Flag and anti-GFP
T3 sequence: T1 sequence

GST–NPR1 = molecular target: T4, GST–NPR1 (UniProt P93002 1-593); test: pull-down; GST pull-down in vitro of His-CCP and His-TGA2 added together, in the presence of Cu^2+ (Supplementary Fig. S13); both purified
T4 construct: NPR1 (non-expressor of pathogenesis-related gene 1), cloned into pGEX-4T-1; source: E. coli BL21, purified
T4 sequence (looked up): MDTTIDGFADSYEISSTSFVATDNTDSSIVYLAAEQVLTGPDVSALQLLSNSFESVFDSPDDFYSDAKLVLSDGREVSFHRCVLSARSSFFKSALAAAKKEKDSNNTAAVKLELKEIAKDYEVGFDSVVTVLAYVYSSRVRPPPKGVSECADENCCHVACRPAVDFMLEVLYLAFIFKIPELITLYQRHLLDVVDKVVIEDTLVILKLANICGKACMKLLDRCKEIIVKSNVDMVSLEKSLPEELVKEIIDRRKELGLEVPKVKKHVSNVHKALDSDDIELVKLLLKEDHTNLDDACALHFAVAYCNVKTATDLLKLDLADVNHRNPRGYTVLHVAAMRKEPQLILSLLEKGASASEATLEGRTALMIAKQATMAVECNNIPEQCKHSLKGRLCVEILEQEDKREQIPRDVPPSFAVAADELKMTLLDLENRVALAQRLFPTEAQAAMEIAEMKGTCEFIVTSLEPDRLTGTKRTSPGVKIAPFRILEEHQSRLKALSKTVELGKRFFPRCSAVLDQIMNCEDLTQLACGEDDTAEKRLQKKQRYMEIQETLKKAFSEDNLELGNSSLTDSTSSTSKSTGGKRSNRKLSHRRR

GST–TGA2 = molecular target: T5, GST–TGA2 (UniProt P43273); test: pull-down; 2 μg GST bait and 2 μg His prey with GST beads in 500 μl of 50 mM Tris–HCl pH 6.8, 150 mM NaCl, 0.2% glycerol, 5 mM DTT, 0.6% Triton X-100, 4 °C, 6 h; blots with anti-His and anti-GST; both purified
T5 sequence: T1 sequence

binding [1]: binds
binding [2]: binds
Substance: CCP (copper chaperone induced by pathogens) fused to a half of sYFP for BiFC (from UniProt A0A7G7X469)

binding [1]: no binding
Substance: CCP^mCBS fused to a half of sYFP for BiFC (Arabidopsis thaliana)

binding (TGA2-Flag): binds
Substance: CCP–GFP (Arabidopsis thaliana)

binding (GST–NPR1): binds
binding (GST–TGA2): binds
Substance: His-CCP (from UniProt A0A7G7X469)
